pIC50: −log10 of the molar value. At least one structure is not confirmed: it was looked up by name or label, or the drawing left a doubt.
Biological target: phencyclidene (PCP) receptors
Test: [3H]TCP receptor binding (RBS1), rat brain cortex membranes
Settings: read-out: Inhibition of [^3 H]TCP Receptor Binding, RBS1 IC50
Method: Tritiated TCP binding, designated RBS1, was carried out essentially as described in J. Pharmacol. Exp. Ther., 238, 739-748 (1986).

## c1csc(C2(N3CCCCC3)CCCCC2)c1 [TCP, 1-[(2-thienyl)cyclohexyl]piperidine, reference compound]
  pIC50: 8.05

Source: patent US4837226A, “Polycyclic amine derivatives useful as cerebrovascular agents” (Warner-Lambert Company, priority 1988, dated 1989)
